Results deposited as PubChem BioAssay AID504784 (Drosophila RNAi Screening Center, 2011)
Test: 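Search for regulators of lipid droplet storage in oleate-fed fly cells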 (primary screen). Cell system: Drosophila Kc167 embryonic cells. Knock-down reagent: long dsRNA against Drosophila genes, about 250 ng dsRNA per well. Timing: 4 days. Challenge: cells fed 400 µM oleic acid bound to BSA. Measurement: 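Microscope images give a droplet-to-nucleus area ratio, taken as log and converted to a screen-wide B-score; higher values mean greater lipid storage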. Direction: droplet/nuclear area B-score: higher = more stored lipid (overstorage).
In all, the deposit lists about 17,000 reagents; below is an unselected part of those with a known target gene and a result. 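Each column is one replicate's B-score; the combined score over replicates was not deposited, so single values may mislead.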 A plus sign joins genes that one reagent is predicted to hit. Not all columns of the deposit are shown. No sequences are given here.

With knock-down of CR32028 (retired record) (GeneID 3772239) [DRSC22959], the screen gave droplet/nuclear area B-score, replicate 1 = -0.0126.
For Cap-D3 + tomb [DRSC02347], the values are droplet/nuclear area B-score, replicate 1 = -0.212.
Silencing of amrt (GeneID 32342) [DRSC19378] came out at: droplet/nuclear area B-score, replicate 1 = -0.226.
Against CG33172 (GeneID 32526) [DRSC21793], the values are droplet/nuclear area B-score, replicate 1 = -1.14.
Depletion of stas (GeneID 32737) [DRSC20104] came out at: droplet/nuclear area B-score, replicate 1 = -1.78.
Silencing of Sur (GeneID 34350) [DRSC03447] resulted in: droplet/nuclear area B-score, replicate 1 = -0.461.
Against Vm32E (GeneID 34558) [DRSC03474], the values are droplet/nuclear area B-score, replicate 1 = -1.78.
Silencing of Pgcl (GeneID 30984) [DRSC18815] came out at: droplet/nuclear area B-score, replicate 1 = -1.13.
Against CG10321 (GeneID 37464) [DRSC04061], the values are droplet/nuclear area B-score, replicate 1 = 1.25.
For CG14074 (GeneID 40051) [DRSC10079] the deposit lists droplet/nuclear area B-score, replicate 1 = -3.46.
With knock-down of Grip (GeneID 50391) [DRSC17940], the screen gave droplet/nuclear area B-score, replicate 1 = -3.53.
Silencing of Grip (GeneID 50391) [DRSC18395] gave: droplet/nuclear area B-score, replicate 1 = 0.678.
CG7329 (GeneID 34457) [DRSC03046] scored droplet/nuclear area B-score, replicate 1 = -0.00215.
Silencing of Achl (GeneID 36605) [DRSC06665] came out at: droplet/nuclear area B-score, replicate 1 = -0.523.
Depletion of Spt-I (GeneID 36448) [DRSC06860] resulted in: droplet/nuclear area B-score, replicate 1 = -0.454.
With knock-down of HLH54F (GeneID 37027) [DRSC07438] the results were droplet/nuclear area B-score, replicate 1 = -1.75.
After knock-down of Grik (GeneID 42476) [DRSC15846], the record shows droplet/nuclear area B-score, replicate 1 = -1.01.
Against Grik (GeneID 42476) [DRSC15847], the entry reads droplet/nuclear area B-score, replicate 1 = -0.962.
Silencing of CG2790 (GeneID 37992) [DRSC04045] gave: droplet/nuclear area B-score, replicate 1 = -0.365.
CG7365 (GeneID 40200) [DRSC10824] scored droplet/nuclear area B-score, replicate 1 = -0.912.
With knock-down of Orp8 (GeneID 42412) [DRSC15110], the screen gave droplet/nuclear area B-score, replicate 1 = -0.442.
For Orp8 (GeneID 42412) [DRSC15712], the entry reads droplet/nuclear area B-score, replicate 1 = 0.693.
With knock-down of Z600 (GeneID 39673) [DRSC11317] the results were droplet/nuclear area B-score, replicate 1 = 0.307.
With knock-down of CG6664 (GeneID 39903) [DRSC10690], the record shows droplet/nuclear area B-score, replicate 1 = 0.673.
IntS12 (GeneID 43227) [DRSC15818] scored droplet/nuclear area B-score, replicate 1 = 0.686.
CG1571 (GeneID 31725) [DRSC18068] showed droplet/nuclear area B-score, replicate 1 = 0.0432.
Tep4 (GeneID 35248) [DRSC03453] scored droplet/nuclear area B-score, replicate 1 = 0.125.
With knock-down of mspo (GeneID 36632) [DRSC07652], the screen gave droplet/nuclear area B-score, replicate 1 = -0.637.
After knock-down of Flad1 (GeneID 32240) [DRSC19898], the screen gave droplet/nuclear area B-score, replicate 1 = -0.0452.
With knock-down of Rack1 (GeneID 34070) [DRSC03405] the results were droplet/nuclear area B-score, replicate 1 = 0.821.
After knock-down of MED14 (GeneID 38073) [DRSC08235], the record shows droplet/nuclear area B-score, replicate 1 = -0.869.
Idua (GeneID 34544) [DRSC02941] scored droplet/nuclear area B-score, replicate 1 = -0.0174.
After knock-down of Tim17b1 (GeneID 40635) [DRSC12179] the results were droplet/nuclear area B-score, replicate 1 = 1.46.
For Mal-A5 (GeneID 35828) [DRSC07232], the values are droplet/nuclear area B-score, replicate 1 = 0.0712.
After knock-down of Or59b (GeneID 37715) [DRSC04632] the results were droplet/nuclear area B-score, replicate 1 = 0.0871.
Knock-down of Vha44 (GeneID 36826) [DRSC07572] came out at: droplet/nuclear area B-score, replicate 1 = -5.07.
Against Vha44 (GeneID 36826) [DRSC07573] the deposit lists droplet/nuclear area B-score, replicate 1 = 0.0622.
CG14042 + SP555 [DRSC02367] gave droplet/nuclear area B-score, replicate 1 = 2.6.
Against CG14042 + SP555 [DRSC03428] the deposit lists droplet/nuclear area B-score, replicate 1 = -0.0527.
For ste24c + CG30461 [DRSC05639], the values are droplet/nuclear area B-score, replicate 1 = -0.0713.
For ste24c + CG30461 [DRSC07316] the deposit lists droplet/nuclear area B-score, replicate 1 = -0.828.
With knock-down of comm3 (GeneID 39696) [DRSC09993], the record shows droplet/nuclear area B-score, replicate 1 = -0.922.
Knock-down of comm3 (GeneID 39696) [DRSC09994] resulted in: droplet/nuclear area B-score, replicate 1 = 0.414.
Against comm3 (GeneID 39696) [DRSC09995], the values are droplet/nuclear area B-score, replicate 1 = 1.05.
With knock-down of Alg-2 (GeneID 3355106) [DRSC07799], the screen gave droplet/nuclear area B-score, replicate 1 = -0.849.
For CG15927 (GeneID 32193) [DRSC19742], the entry reads droplet/nuclear area B-score, replicate 1 = 0.0203.
CG13766 (GeneID 33922) [DRSC02271] gave droplet/nuclear area B-score, replicate 1 = 1.42.
With knock-down of CG15155 (GeneID 35087) [DRSC02456] the results were droplet/nuclear area B-score, replicate 1 = 0.203.
With knock-down of CG7632 (GeneID 40357) [DRSC11842] the results were droplet/nuclear area B-score, replicate 1 = 1.28.
After knock-down of Cox17 (GeneID 32439) [DRSC20145], the record shows droplet/nuclear area B-score, replicate 1 = 3.04.
CG1354 (GeneID 31914) [DRSC17902] scored droplet/nuclear area B-score, replicate 1 = -0.54.
